# In PubChem BioAssay AID504444 (National Center for Advancing Translational Sciences (NCATS), 2011):
# Screen size: about 360,000 compounds; about 7,500 (2.1%) were called active. The inconclusive results got no clear call from the source; some entries with a clear call stand among them for comparison. The call rests on the fitted dose curve; in most records, active means well fitted inhibition curve with a large enough effect; inconclusive means small, poorly fitted or top-dose-only effect, or effect the other way; inactive means flat fitted curve, though single readings scatter. A potency beside an inconclusive call is a rough fit, not a confirmed value.
# Assay: Nrf2 qHTS screen for inhibitors; further: nearly all actives have a fitted effect of over 60% in size
# Settings: A549 ARE-Fluc reporter, luciferase luminescence, 18-24 h; activity change, negative = inhibition: at 46 µM (top of the series)
# Outline: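 In this cell-based qHTS, ARE-driven firefly luciferase in A549 cells reports Nrf2 activity; the luminescent signal after BugLite lysis is the measured value, with a prior CellTiter-Fluor read for cell health.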
# On the % scale 0 is the no-effect control and ±100 the full control effect; potency means the concentration at half of the fitted maximal effect.
Structure (SMILES),"activity change, negative = inhibition",Potency
COc1ccc(CN(Cc2ccccc2)C(=O)c2ccno2)cc1COc1ccc(NC(C)=O)cc1,inactive: -1.81%,–
Cc1ccc(C)c(N(C)C(=O)Cc2c(C(=O)O)[nH]c3ccc(Cl)cc23)c1,inactive: -10.1%,–
CCOC(=O)CC1COCCN1C(=O)c1cc(COc2ccc(F)c(F)c2)on1 (stereo unspecified),–,"inconclusive: 18.4 µM [activator, single point]"
Cc1cc(C)n2nc(SC3CCCCN(C(=O)c4ccc(F)cc4)C3=O)nc2n1 (stereo unspecified),–,"inconclusive: 25.9 µM [activator, single point]"
COc1ccc(C2C(C(=O)Nc3ccc(C)cc3C)=C(C)Nc3nc(SCc4cccc(C)c4)nn32)c(OC)c1 (stereo unspecified),inactive: 18.4%,–
COc1ccc(CN2CCN(c3ccccn3)CC2)cc1OCc1ccccc1,–,"inconclusive: 29.1 µM [falling, single point]"
CC(=O)N/C(=C\c1ccccc1)C(=O)OCC(=O)Nc1ccc(C)c(S(=O)(=O)N(C)C)c1,inactive: 5.82%,–
Cc1noc(C)c1COC(=O)c1ccccc1NC(=O)c1ccco1,–,"inconclusive: 29.1 µM [falling, partial curve, poor fit]"
CCc1ccc(OCCCC(=O)Nc2nccs2)cc1,–,"inconclusive: 13 µM [activator, partial curve]"
Cc1ccc(CN(C)C(=O)c2cccc(S(=O)(=O)N3CCc4ccccc4C3)c2)o1,–,"inconclusive: 2.31 µM [falling, partial curve, poor fit]"
Cc1ccccc1Cn1c(=O)n(CC2CCC(C(=O)N3CCOCC3)CC2)c(=O)c2sccc21 (stereo unspecified),–,"inconclusive: 8.2 µM [falling, partial curve, poor fit]"
Nc1nc(-c2ccccc2)[nH]c(=O)c1N,inactive: 12.7%,–
O=C1c2ccccc2C(=O)N1c1ccc(S(=O)(=O)N2CCOCC2)c2ccccc12,inactive: -9.07%,–
COC(=O)Nc1ccc(S(=O)(=O)Nc2ccc(O)cc2)cc1,–,"inconclusive: 0.0058 µM [falling, full curve, poor fit]"
CC(=O)N1CCN(Cc2nc3cc(NC(=O)c4ccc(Cl)cc4)ccc3n2C)CC1,–,active: 10.3 µM
COc1ccc(S(=O)(=O)c2nnn(-c3ccc(C(C)C)cc3)c2C)cc1,–,active: 9.2 µM
CC(C)CC(c1nnnn1Cc1cccs1)N1CCN(c2nc3ccccc3s2)CC1 (stereo unspecified),–,"inconclusive: 20.6 µM [falling, single point]"
COc1cccc(OCCOc2ccccc2[N+](=O)[O-])c1,–,"inconclusive: 9.2 µM [activator, partial curve, poor fit]"
O=C(CSc1nc(-c2ccco2)cc(C(F)(F)F)n1)N1CCN(c2ccc(Cl)cc2)CC1,–,"inconclusive: 16.4 µM [falling, single point]"
CN1CCN(CC(=O)Nc2nc(-c3ccccc3)cs2)CC1,inactive: 6.45%,–
COC(=O)CCn1nnc(-c2cccs2)n1,inactive: 4.42%,–
Cc1ccc(/C=C/C(=O)OCC(=O)NCCc2ccc(S(N)(=O)=O)cc2)o1,–,"inconclusive: 14.6 µM [falling, partial curve, poor fit]"

# Retrieved by compound from the list above, three records:
Structure (SMILES),"activity change, negative = inhibition",Potency
Cc1noc(C)c1COC(=O)c1ccccc1NC(=O)c1ccco1,–,"inconclusive: 29.1 µM [falling, partial curve, poor fit]"
CC(=O)N/C(=C\c1ccccc1)C(=O)OCC(=O)Nc1ccc(C)c(S(=O)(=O)N(C)C)c1,inactive: 5.82%,–
Cc1ccccc1Cn1c(=O)n(CC2CCC(C(=O)N3CCOCC3)CC2)c(=O)c2sccc21 (stereo unspecified),–,"inconclusive: 8.2 µM [falling, partial curve, poor fit]"

# Next part:

Structure (SMILES),"activity change, negative = inhibition",Potency
CC(=O)c1ccc(-c2c(C3C4C=CCC(C)C4C(=O)N3Cc3ccccc3)ccc3ccccc23)cc1 (stereo unspecified),–,"inconclusive: 16.4 µM [falling, partial curve, poor fit]"
COCCNC(=O)CCCCCN1C(=O)CCC1=O,–,"inconclusive: 6.51 µM [activator, partial curve]"
O=C(CSc1nc2c(c(=O)n1-c1ccccc1)SCC2)N1CCOCC1,inactive: -4.45%,–
Cc1ccsc1C(=O)OCC(=O)N(C)C1CCCCC1,–,"inconclusive: 7.31 µM [activator, partial curve]"
CCOC(=O)c1sc2nc(CSc3ccccc3)[nH]c(=O)c2c1C,–,"inconclusive: 23.1 µM [falling, single point]"
COC(=O)[C@@]12CCCCN1[C@H](c1ccc(-c3ccc(C(C)=O)cc3)cc1)[C@@H]1C(=O)N(C)C(=O)[C@@H]12,–,"inconclusive: 29.1 µM [falling, single point]"
CCOc1ncccc1C(=O)OCC(=O)Nc1ccc2c(c1)OCCO2,inactive: 13.8%,–
CC(C)(C)NC(=O)N1CCCN(c2ccc(C(F)(F)F)cn2)CC1,–,"inconclusive: 29.1 µM [falling, single point]"
CCOC(=O)C(=O)NC12CC3CC(CC(C3)C1)C2,–,"inconclusive: 0.0052 µM [falling, full curve, poor fit]"
COC(=O)c1[nH]c(C)c(/C(O)=C2\C(=O)C(=O)N(CCN(C)C)C2c2cccc(OC)c2OC)c1C (stereo unspecified),–,"inconclusive: 2.91 µM [activator, single point]"
NS(=O)(=O)c1ccc2nc(NC(=O)Nc3ccccc3F)sc2c1,–,"inconclusive: 25.9 µM [activator, single point]"
Oc1ccc(-c2nc3ccc4ccccc4c3c3c2CCC3)cc1O,inactive: 12.9%,–
COc1ccc2c(c1)N(C)/C(=C/c1cccc[n+]1C)S2,–,active: 3.26 µM
Cc1ccc(NC(=S)Nc2ccc(OC(F)F)c(Cl)c2)cc1Cl,–,"inconclusive: 29.1 µM [falling, single point]"
CCN(c1ccccc1)S(=O)(=O)c1ccc(Cl)c(NC(=O)CSc2ncn[nH]2)c1,inactive: -17.4%,–
N#CC1=C(N)Oc2cc(N)ccc2C1C1CCCCC1 (stereo unspecified),–,"inconclusive: 9.2 µM [falling, partial curve, poor fit]"
O=C1Nc2ccc(Br)cc2C12NNc1ccccc1O2 (stereo unspecified),inactive: -13.1%,–
NC(=O)CC(NC(=O)Cc1ccc(Cl)cc1)c1ccc(NCC2CC2)c([N+](=O)[O-])c1 (stereo unspecified),–,"inconclusive: 29.1 µM [falling, partial curve, poor fit]"
CCN(CC)C(=O)c1ccc(-c2nnc(Nc3ccc(O)cc3)c3ccccc23)cc1,–,"inconclusive: 23.1 µM [falling, partial curve, poor fit]"
CCN(C[C@H]1N[C@@](CC)(C(=O)OC)[C@H]2C(=O)N(Cc3ccccc3)C(=O)[C@@H]12)C(=O)c1ccccc1,inactive: -0.116%,–
CC(C)(C)NC(=O)C(c1ccncc1)N(Cc1cccs1)C(=O)Cn1nnc(-c2ccc(F)cc2)n1 (stereo unspecified),–,active: 9.2 µM
c1cc2c(c(NCc3ccncc3)c1)CCCC2,–,"inconclusive: 25.9 µM [falling, single point]"

Structure (SMILES),"activity change, negative = inhibition",Potency
Cc1ccc2cccc(OCC(=O)Nc3ccc(N4CCOCC4)cc3)c2n1,–,"inconclusive: 18.4 µM [falling, partial curve, poor fit]"
C#CCOCCOCCOCCNc1nc(N2CCN(C(=O)CCCCCCCCCCNC(=O)[C@H](CCCCN)n3cc(C)nn3)CC2)nc(N2CCN(C(=O)CCCCCCCCCCNC(=O)[C@@H]([C@H](C)O)n3cc(C)nn3)CC2)n1,–,"inconclusive: 29.1 µM [falling, single point]"
Cc1ccc(-n2ncc3c(=O)n(Cc4cccnc4)cnc32)cc1,–,"inconclusive: 18.4 µM [falling, single point]"
Nn1c(Cc2ccccc2F)nnc1SCn1nnc2ccccc2c1=O,–,"inconclusive: 0.146 µM [falling, full curve, poor fit]"
Cc1cccc(N2CCN(C(=O)c3noc4c3CCCCC4)CC2)c1C,–,"inconclusive: 9.2 µM [falling, partial curve, poor fit]"
CCN1CCN(C(=O)c2ccc(S(=O)(=O)Nc3ccccc3)cc2)CC1,–,"inconclusive: 18.4 µM [activator, partial curve, poor fit]"
c1ccc(-c2ccc(C3=Nn4c(nnc4-c4cccs4)SC3)cc2)cc1,–,"inconclusive: 13 µM [falling, partial curve]"
Cc1ccccc1NC(=O)c1ccc2ccccc2c1,–,"inconclusive: 14.6 µM [activator, partial curve, poor fit]"
COCCCN=C1NN=C(c2cc(C)n(Cc3ccco3)c2C)CS1,–,"inconclusive: 18.4 µM [activator, partial curve]"
Cc1c(NC(=S)N2CCN(c3cccc(Cl)c3)CC2)c(=O)n(-c2ccccc2)n1C,–,"inconclusive: 13 µM [falling, partial curve]"
CN(CC(=O)Nc1ccc(Cl)c(C(F)(F)F)c1)C(=O)C1CC(=O)N(C2CCCC2)C1 (stereo unspecified),–,"inconclusive: 8.2 µM [falling, single point]"
CCN(CC)S(=O)(=O)c1cccc(NC(=O)COC(=O)c2cc(=O)c3ccccc3o2)c1,–,"inconclusive: 6.51 µM [falling, partial curve, poor fit]"
Cc1ccc(NS(=O)(=O)c2ccc(NC(=O)c3cccs3)cc2)cc1,–,"inconclusive: 18.4 µM [falling, single point]"
Cc1cc(N)n2nc(C(F)(F)F)nc2n1,–,"inconclusive: 7.31 µM [activator, partial curve, poor fit]"
CC1CCCCN1c1ncnc2ccccc12 (stereo unspecified),–,"inconclusive: 20.6 µM [falling, partial curve, poor fit]"
O=C(NNc1ccc(F)cc1F)c1cccs1,inactive: -10.8%,–
Cn1c(=Nc2ccccc2)sc2ccccc21,–,"inconclusive: 20.6 µM [activator, single point]"
CC(=O)Nc1ccc2c(CSc3nnc(-c4cccnc4)n3-c3ccc(C)cc3C)cc(=O)oc2c1,–,"inconclusive: 29.1 µM [falling, single point]"
c1ccc(N2CCN(c3nc(-c4ccccn4)nc4ccccc34)CC2)cc1,–,active: 16.4 µM
CC1=C(C(=O)OCC2CCCO2)C(c2ccncc2)C2=C(CCCC2=O)N1 (stereo unspecified),inactive: -1.47%,–
O=c1cc(N2CCCCC2)c(-c2ccccc2)nn1Cc1c(Cl)cccc1Cl,–,active: 18.4 µM
COc1ccc(/C=C/C(=O)Nc2cc(C)nn2-c2nc3ccccc3[nH]2)cc1,–,"inconclusive: 29.1 µM [falling, single point]"
